The target of one assay is T1, ANT (human) (UniProt P05141).
T1 sequence: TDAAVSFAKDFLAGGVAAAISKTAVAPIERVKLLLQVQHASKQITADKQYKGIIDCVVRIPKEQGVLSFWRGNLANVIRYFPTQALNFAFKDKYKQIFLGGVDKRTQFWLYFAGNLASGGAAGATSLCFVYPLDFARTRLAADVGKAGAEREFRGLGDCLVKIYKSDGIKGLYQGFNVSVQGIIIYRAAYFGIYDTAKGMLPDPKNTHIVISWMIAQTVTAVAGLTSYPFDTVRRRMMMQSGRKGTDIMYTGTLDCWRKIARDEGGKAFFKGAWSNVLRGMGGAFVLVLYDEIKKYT
Put plainly: anti-FLAG immunoprecipitation from HEK 293 T lysate, SDS-PAGE; band identified by mass spectrometry (Table 1).

Protein sequences, listed by entry. Tags and fused reporters are not part of them. Residues count along the entry.
UniProt Q07021, residues 74-282: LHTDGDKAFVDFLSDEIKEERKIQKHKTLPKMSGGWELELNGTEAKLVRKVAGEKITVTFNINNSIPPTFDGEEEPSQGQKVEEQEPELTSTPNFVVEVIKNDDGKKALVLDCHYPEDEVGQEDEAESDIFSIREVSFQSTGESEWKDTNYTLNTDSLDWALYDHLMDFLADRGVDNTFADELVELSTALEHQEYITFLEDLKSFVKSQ

Another assay has as its target T2, peroxiredoxin (UniProt Q06830).
T2 sequence (looked up): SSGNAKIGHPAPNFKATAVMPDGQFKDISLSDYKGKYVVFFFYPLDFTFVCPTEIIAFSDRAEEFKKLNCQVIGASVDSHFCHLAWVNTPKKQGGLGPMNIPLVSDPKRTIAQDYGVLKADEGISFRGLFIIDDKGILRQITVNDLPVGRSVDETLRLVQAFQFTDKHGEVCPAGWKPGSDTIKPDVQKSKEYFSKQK
Put plainly: anti-FLAG immunoprecipitation, SDS-PAGE; band identified by mass spectrometry as peroxiredoxin.

Assay [1] concerns the target C1QBP (Q Subcomponent Binding Protein) (UniProt Q07021). Put plainly: anti-FLAG immunoprecipitation, SDS-PAGE; band identified by mass spectrometry as C1QBP.

These are yes or no findings as the source states them, for the method shown. In cells and extracts the contact can be indirect. Here binding means that the protein was enriched with, or labelled near, the bait; the list need not be complete. Where a sequence is shown, tags or fusion partners need not be part of it.

B1: FLAG-tagged uORF44p (protein derived from uORF44, an upstream ORF in the mRNA of ARHGEF9) (other, not shown: small tags and cut ends)
chain: MDSLTEQRLTSPNLPAPHLEHYSVLHCTMTLDVQTVVVFAVIVVLLLVNVILMFFLGTR
notes: Expressed from a pcDNA3 FLAG vector in HEK 293 T cells; also called uORF44 protein; mental activity-related protein
Take B1: the binding entry in the assay with ANT (human) is given as “binds”.

B2: FLAG-tagged ouORF7p (protein derived from ouORF7) (protein, not shown: small tags and cut ends)
chain: MSAGRASGALSRTRTPLEPEPQQKPEPEPNHRCSPLNPGGALARARPPGPHVGTTA
For B2, the binding entry with peroxiredoxin was “binds”.

Regarding MRKGARRLCPAARVSMERRRPRLLRRRLRQWRWRPFLKKWTSSPPHTGG (peptide, not shown: small tags and cut ends) [FLAG-tagged ouORF21p (protein derived from ouORF21)], the binding entry in assay [1] is reported as “binds”.

Source of the values: patent US20190049459A1 (TOKYO INSTITUTE OF TECHNOLOGY, published 2019).
